These are yes or no findings as the source states them, for the method shown. In cells and extracts the contact can be indirect. Some results given as binding are weak or reduced against the parent protein; the word gives no strength. Sequences can lack the tags named with a protein.
Assays:
[1] = molecular target: T1, eGFP-GGSG-Flag-RBM20-R634Q (human) (UniProt Q5T481); test: co-IP; GFP-Trap magnetic particles, cytoplasmic fraction of HeLa expressing eGFP-RBM20 WT or mutants, 4 °C 3 h; washes with 150 mM NaCl, 0.1% NP-40; western blot for RBM20, TNPO3 and MOV10; no-bait control
T1 sequence: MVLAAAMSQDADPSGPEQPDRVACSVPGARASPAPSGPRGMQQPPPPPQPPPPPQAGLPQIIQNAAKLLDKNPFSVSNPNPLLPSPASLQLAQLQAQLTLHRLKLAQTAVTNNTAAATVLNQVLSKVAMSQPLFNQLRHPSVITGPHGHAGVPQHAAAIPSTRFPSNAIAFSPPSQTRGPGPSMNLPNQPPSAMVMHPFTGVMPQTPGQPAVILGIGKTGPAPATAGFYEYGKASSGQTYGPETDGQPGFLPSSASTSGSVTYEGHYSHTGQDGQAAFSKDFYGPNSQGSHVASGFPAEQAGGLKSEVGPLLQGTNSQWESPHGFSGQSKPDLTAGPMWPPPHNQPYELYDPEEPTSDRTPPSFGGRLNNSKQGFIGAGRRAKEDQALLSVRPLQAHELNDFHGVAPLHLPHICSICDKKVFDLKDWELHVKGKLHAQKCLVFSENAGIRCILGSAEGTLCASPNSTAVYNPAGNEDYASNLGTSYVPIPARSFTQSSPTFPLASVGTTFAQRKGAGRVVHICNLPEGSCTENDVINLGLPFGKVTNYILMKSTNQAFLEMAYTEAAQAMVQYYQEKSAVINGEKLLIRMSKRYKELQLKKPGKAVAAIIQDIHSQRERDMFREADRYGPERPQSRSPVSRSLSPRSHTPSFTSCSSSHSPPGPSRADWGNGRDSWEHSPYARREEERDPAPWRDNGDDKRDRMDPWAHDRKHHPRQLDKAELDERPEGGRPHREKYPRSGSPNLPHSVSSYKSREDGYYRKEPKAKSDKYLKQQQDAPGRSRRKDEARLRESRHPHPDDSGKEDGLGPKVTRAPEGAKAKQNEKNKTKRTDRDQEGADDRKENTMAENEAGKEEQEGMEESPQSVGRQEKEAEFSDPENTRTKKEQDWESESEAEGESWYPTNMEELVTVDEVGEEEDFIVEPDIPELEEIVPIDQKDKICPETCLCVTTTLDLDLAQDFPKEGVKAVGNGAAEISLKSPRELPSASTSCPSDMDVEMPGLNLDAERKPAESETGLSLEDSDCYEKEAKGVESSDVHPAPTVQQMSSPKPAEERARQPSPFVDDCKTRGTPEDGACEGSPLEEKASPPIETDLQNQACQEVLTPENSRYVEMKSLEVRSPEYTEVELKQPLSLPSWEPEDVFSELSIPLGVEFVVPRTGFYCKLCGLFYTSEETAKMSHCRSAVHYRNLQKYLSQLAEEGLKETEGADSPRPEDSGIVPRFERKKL

[2] = molecular target: T2, eGFP-GGSG-Flag-RBM20-P633L (human) (UniProt Q5T481); test: as above
T2 sequence: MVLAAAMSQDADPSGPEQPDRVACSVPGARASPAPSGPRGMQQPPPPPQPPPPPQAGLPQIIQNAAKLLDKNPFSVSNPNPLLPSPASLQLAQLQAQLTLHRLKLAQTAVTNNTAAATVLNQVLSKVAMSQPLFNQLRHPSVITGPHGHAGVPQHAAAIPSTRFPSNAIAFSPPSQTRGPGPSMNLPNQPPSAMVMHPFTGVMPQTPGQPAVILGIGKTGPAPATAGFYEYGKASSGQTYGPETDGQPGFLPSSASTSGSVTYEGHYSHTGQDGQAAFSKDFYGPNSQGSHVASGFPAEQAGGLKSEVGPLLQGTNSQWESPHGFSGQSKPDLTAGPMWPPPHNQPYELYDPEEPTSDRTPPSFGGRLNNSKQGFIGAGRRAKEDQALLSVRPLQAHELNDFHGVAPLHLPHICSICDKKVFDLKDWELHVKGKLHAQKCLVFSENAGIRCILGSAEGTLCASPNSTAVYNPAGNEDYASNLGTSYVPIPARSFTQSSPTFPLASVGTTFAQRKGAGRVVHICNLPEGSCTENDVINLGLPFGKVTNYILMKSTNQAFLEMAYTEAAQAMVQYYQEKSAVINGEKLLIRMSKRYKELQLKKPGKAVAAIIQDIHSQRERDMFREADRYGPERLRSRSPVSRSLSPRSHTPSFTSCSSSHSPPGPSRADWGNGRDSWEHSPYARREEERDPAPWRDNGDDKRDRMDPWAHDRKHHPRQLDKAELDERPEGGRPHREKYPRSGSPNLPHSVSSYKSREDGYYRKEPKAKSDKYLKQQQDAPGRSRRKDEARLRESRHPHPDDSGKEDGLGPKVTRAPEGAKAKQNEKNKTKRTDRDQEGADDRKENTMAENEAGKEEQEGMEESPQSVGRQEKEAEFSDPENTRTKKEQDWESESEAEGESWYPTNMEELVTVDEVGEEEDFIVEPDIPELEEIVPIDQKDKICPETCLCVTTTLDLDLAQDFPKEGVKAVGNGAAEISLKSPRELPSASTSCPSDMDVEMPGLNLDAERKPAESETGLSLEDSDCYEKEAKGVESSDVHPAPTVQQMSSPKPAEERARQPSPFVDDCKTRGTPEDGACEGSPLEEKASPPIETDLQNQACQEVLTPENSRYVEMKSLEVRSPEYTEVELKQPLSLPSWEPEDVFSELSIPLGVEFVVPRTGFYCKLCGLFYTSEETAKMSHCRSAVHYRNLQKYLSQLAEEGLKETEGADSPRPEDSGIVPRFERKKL

- binding [1]: binds
- binding [2]: binds
B1: MOV10 (protein, UniProt Q9HCE1 1-1003)
chain: MPSKFSCRQLREAGQCFESFLVVRGLDMETDRERLRTIYNRDFKISFGTPAPGFSSMLYGMKIANLAYVTKTRVRFFRLDRWADVRFPEKRRMKLGSDISKHHKSLLAKIFYDRAEYLHGKHGVDVEVQGPHEARDGQLLIRLDLNRKEVLTLRLRNGGTQSVTLTHLFPLCRTPQFAFYNEDQELPCPLGPGECYELHVHCKTSFVGYFPATVLWELLGPGESGSEGAGTFYIARFLAAVAHSPLAAQLKPMTPFKRTRITGNPVVTNRIEEGERPDRAKGYDLELSMALGTYYPPPRLRQLLPMLLQGTSIFTAPKEIAEIKAQLETALKWRNYEVKLRLLLHLEELQMEHDIRHYDLESVPMTWDPVDQNPRLLTLEVPGVTESRPSVLRGDHLFALLSSETHQEDPITYKGFVHKVELDRVKLSFSMSLLSRFVDGLTFKVNFTFNRQPLRVQHRALELTGRWLLWPMLFPVAPRDVPLLPSDVKLKLYDRSLESNPEQLQAMRHIVTGTTRPAPYIIFGPPGTGKTVTLVEAIKQVVKHLPKAHILACAPSNSGADLLCQRLRVHLPSSIYRLLAPSRDIRMVPEDIKPCCNWDAKKGEYVFPAKKKLQEYRVLITTLITAGRLVSAQFPIDHFTHIFIDEAGHCMEPESLVAIAGLMEVKETGDPGGQLVLAGDPRQLGPVLRSPLTQKHGLGYSLLERLLTYNSLYKKGPDGYDPQFITKLLRNYRSHPTILDIPNQLYYEGELQACADVVDRERFCRWAGLPRQGFPIIFHGVMGKDEREGNSPSFFNPEEAATVTSYLKLLLAPSSKKGKARLSPRSVGVISPYRKQVEKIRYCITKLDRELRGLDDIKDLKVGSVEEFQGQERSVILISTVRSSQSFVQLDLDFNLGFLKNPKRFNVAVTRAKALLIIVGNPLLLGHDPDWKVFLEFCKENGGYTGCPFPAKLDLQQGQNLLQGLSKLSPSTSGPHSHDYLPQEREGEGGLSLQVEPEWRNEL

From publication PMC10353998 (2023)
